In article PMC9935901, “B-lymphoid tyrosine kinase-mediated FAM83A phosphorylation elevates pancreatic tumorigenesis through interacting with β-catenin” (Signal Transduction and Targeted Therapy, 2023):
No constants are given. Whether binding was seen depends on the method and setting. Binding seen in cells or lysates may run through a third protein. Some results given as binding are weak or reduced against the parent protein; the word gives no strength. For some of these results: Sequences can lack the tags named with a protein. Blank lines part the entries; values can stand above or below the binder they belong to.

Amino acid sequences for entries named in this document (tags omitted). A change or cut given only in a name is not applied to a line headed by its entry. Residues count along the entry.
UniProt P35222: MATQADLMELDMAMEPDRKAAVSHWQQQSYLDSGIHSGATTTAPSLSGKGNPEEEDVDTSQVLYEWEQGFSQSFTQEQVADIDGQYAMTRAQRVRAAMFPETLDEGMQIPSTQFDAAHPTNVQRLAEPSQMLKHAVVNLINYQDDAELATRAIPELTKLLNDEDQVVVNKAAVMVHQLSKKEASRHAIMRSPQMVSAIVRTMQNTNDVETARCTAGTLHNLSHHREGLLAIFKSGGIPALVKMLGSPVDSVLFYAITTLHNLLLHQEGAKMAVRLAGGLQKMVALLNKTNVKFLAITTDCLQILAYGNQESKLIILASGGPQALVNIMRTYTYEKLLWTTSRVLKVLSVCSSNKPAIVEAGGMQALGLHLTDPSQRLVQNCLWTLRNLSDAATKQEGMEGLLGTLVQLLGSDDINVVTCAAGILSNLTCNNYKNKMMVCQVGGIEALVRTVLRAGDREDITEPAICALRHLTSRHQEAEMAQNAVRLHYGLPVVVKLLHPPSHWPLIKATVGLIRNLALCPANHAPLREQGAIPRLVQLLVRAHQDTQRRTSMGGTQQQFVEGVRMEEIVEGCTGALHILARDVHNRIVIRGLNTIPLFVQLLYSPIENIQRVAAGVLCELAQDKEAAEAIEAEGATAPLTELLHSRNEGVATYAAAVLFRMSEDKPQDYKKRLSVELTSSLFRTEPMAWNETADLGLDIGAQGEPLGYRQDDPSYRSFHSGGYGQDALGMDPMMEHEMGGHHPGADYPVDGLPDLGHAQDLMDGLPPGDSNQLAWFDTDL
UniProt O15169: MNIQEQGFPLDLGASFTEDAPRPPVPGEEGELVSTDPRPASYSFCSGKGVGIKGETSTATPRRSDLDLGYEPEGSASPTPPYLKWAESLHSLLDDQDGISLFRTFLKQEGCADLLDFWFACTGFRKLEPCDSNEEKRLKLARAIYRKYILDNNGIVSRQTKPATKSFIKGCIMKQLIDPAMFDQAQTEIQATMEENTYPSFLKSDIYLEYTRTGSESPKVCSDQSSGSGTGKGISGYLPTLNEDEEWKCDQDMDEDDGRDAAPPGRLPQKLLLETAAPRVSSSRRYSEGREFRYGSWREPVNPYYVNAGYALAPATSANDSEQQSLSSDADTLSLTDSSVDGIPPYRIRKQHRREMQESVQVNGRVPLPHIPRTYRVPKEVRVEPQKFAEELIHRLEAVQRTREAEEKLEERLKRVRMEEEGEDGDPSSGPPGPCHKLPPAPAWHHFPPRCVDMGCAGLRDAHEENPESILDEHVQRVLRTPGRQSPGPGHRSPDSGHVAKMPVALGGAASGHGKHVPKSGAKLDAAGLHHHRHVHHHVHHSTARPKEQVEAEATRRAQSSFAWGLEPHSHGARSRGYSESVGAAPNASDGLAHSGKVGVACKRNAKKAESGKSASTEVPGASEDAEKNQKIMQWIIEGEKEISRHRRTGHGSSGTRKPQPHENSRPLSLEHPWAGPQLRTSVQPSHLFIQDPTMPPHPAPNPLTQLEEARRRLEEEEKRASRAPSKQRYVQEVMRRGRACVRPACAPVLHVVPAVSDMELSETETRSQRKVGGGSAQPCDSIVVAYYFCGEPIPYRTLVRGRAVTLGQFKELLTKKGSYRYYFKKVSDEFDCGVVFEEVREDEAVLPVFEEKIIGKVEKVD
UniProt P49841: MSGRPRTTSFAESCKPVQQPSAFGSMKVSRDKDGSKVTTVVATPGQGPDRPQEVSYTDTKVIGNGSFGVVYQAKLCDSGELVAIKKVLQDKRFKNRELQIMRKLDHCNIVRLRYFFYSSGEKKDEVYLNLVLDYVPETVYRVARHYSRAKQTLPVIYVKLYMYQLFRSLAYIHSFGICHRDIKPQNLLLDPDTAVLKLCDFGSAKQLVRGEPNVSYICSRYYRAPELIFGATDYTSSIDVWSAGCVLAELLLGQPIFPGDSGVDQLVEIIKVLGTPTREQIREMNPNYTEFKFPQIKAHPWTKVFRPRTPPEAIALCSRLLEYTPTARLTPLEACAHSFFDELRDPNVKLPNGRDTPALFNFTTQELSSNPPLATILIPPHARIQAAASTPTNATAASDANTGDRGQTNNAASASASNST
kinase domain of GSK3β: residues 56-340 of P49841
UniProt Q9NQB0: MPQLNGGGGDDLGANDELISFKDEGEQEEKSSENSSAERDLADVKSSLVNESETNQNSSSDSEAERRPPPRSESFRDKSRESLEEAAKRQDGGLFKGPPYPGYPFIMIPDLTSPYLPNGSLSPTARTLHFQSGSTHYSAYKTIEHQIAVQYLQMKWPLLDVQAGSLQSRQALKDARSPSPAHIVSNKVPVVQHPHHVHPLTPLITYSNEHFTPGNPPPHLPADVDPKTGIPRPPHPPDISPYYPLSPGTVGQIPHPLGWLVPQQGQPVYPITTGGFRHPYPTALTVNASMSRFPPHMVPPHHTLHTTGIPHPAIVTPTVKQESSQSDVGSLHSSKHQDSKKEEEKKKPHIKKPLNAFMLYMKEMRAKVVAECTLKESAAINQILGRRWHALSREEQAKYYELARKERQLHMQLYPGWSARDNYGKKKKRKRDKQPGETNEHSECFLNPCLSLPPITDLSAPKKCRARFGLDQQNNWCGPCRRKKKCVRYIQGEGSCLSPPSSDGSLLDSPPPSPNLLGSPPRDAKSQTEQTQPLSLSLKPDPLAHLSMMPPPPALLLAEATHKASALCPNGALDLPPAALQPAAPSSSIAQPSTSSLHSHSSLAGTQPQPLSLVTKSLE

How the values were obtained:
[1] = target: endogenous β-catenin (human (endogenous in PANC-1 and HEK293T)) (UniProt P35222); test: co-IP; endogenous proteins in PANC-1 cell lysates, western blotting; with or without FAM83A knockdown, Flag-FAM83A overexpression or peptide treatment
[2] = target: endogenous AXIN1 (human (endogenous in PANC-1 and HEK293T)) (UniProt O15169); test: as above
[3] = target: endogenous GSK3β (human (endogenous in PANC-1 and HEK293T)) (UniProt P49841); test: as above
[4] = target: TCF4 (construct not stated) (UniProt Q9NQB0); test: co-IP; supplementary panels (Fig. S1b–e, S4c); exogenous co-IP; cells and tags not shown
[5] = target: GSK3β (exogenous, construct not stated) (UniProt P49841); test: as above
kinase domain of GSK3β = kinase domain of GSK3β (UniProt P49841); test: as above
HA-tagged β-catenin = HA-tagged β-catenin (UniProt P35222); test: co-IP; HEK293T cells transfected for 48 h, IP and western blotting; with or without BLK, FAM83A wild type, Y138A or Y138D, saracatinib

binding [1]: binds
binding [2]: binds
binding [3]: binds
B1: endogenous FAM83A (protein, UniProt Q86UY5 1-434)
chain: MSRSRHLGKIRKRLEDVKSQWVRPARADFSDNESARLATDALLDGGSEAYWRVLSQEGEVDFLSSVEAQYIQAQAREPPCPPDTLGGAEAGPKGLDSSSLQSGTYFPVASEGSEPALLHSWASAEKPYLKEKSSATVYFQTVKHNNIRDLVRRCITRTSQVLVILMDVFTDVEIFCDILEAANKRGVFVCVLLDQGGVKLFQEMCDKVQISDSHLKNISIRSVEGEIYCAKSGRKFAGQIREKFIISDWRFVLSGSYSFTWLCGHVHRNILSKFTGQAVELFDEEFRHLYASSKPVMGLKSPRLVAPVPPGAAPANGRLSSSSGSASDRTSSNPFSGRSAGSHPGTRSVSASSGPCSPAAPHPPPPPRFQPHQGPWGAPSPQAHLSPRPHDGPPAAVYSNLGAYRPTRLQLEQLGLVPRLTPTWRPFLQASPHF

binding [4]: binds
binding [5]: binds
binding (kinase domain of GSK3β): binds
B2: FAM83A (construct not stated) (protein, UniProt Q86UY5 1-434)
chain: MSRSRHLGKIRKRLEDVKSQWVRPARADFSDNESARLATDALLDGGSEAYWRVLSQEGEVDFLSSVEAQYIQAQAREPPCPPDTLGGAEAGPKGLDSSSLQSGTYFPVASEGSEPALLHSWASAEKPYLKEKSSATVYFQTVKHNNIRDLVRRCITRTSQVLVILMDVFTDVEIFCDILEAANKRGVFVCVLLDQGGVKLFQEMCDKVQISDSHLKNISIRSVEGEIYCAKSGRKFAGQIREKFIISDWRFVLSGSYSFTWLCGHVHRNILSKFTGQAVELFDEEFRHLYASSKPVMGLKSPRLVAPVPPGAAPANGRLSSSSGSASDRTSSNPFSGRSAGSHPGTRSVSASSGPCSPAAPHPPPPPRFQPHQGPWGAPSPQAHLSPRPHDGPPAAVYSNLGAYRPTRLQLEQLGLVPRLTPTWRPFLQASPHF

binding (HA-tagged β-catenin): binds
B3: Flag-tagged FAM83A (protein, UniProt Q86UY5 1-434)
chain: MSRSRHLGKIRKRLEDVKSQWVRPARADFSDNESARLATDALLDGGSEAYWRVLSQEGEVDFLSSVEAQYIQAQAREPPCPPDTLGGAEAGPKGLDSSSLQSGTYFPVASEGSEPALLHSWASAEKPYLKEKSSATVYFQTVKHNNIRDLVRRCITRTSQVLVILMDVFTDVEIFCDILEAANKRGVFVCVLLDQGGVKLFQEMCDKVQISDSHLKNISIRSVEGEIYCAKSGRKFAGQIREKFIISDWRFVLSGSYSFTWLCGHVHRNILSKFTGQAVELFDEEFRHLYASSKPVMGLKSPRLVAPVPPGAAPANGRLSSSSGSASDRTSSNPFSGRSAGSHPGTRSVSASSGPCSPAAPHPPPPPRFQPHQGPWGAPSPQAHLSPRPHDGPPAAVYSNLGAYRPTRLQLEQLGLVPRLTPTWRPFLQASPHF
